Reference: US20250011423A1
Changes are numbered by the printed parent chain. These are yes or no findings as the source states them, for the method shown. Some entries that bind do so weakly or less than the wild type.

The chains behind the UniProt entries cited, without tags or fusion partners. Where a name states a change or a piece, a line headed by the entry shows the natural chain unless it says otherwise.
UniProt Q86YW5: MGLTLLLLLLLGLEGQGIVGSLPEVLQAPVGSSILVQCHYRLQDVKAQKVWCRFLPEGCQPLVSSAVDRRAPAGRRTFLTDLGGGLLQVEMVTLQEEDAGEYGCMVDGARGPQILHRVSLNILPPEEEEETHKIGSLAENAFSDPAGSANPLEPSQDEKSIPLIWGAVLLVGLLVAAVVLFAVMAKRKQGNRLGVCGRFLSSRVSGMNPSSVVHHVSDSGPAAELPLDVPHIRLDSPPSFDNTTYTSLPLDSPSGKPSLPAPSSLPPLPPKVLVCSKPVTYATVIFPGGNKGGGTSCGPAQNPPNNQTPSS
UniProt Q8K558: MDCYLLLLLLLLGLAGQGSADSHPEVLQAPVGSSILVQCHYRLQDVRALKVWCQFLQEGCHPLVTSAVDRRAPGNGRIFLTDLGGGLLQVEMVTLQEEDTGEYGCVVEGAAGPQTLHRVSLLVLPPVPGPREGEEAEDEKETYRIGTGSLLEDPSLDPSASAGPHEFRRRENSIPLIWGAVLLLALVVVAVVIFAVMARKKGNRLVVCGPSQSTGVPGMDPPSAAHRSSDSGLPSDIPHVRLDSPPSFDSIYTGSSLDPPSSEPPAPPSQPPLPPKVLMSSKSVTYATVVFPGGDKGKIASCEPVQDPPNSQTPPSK

Columns and labels:
human TREML1 ECD (human) = target: T1, human TREML1 ECD (human) (UniProt Q86YW5); experiment: solid phase binding assay (FIG. 4)
T1 sequence: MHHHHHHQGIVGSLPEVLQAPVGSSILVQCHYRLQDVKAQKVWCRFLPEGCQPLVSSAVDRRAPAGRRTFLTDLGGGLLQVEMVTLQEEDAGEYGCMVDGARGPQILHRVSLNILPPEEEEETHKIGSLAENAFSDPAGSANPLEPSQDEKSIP

mouse TREML1 ECD (mouse) = target: T2, mouse TREML1 ECD (mouse) (UniProt Q8K558); experiment: solid phase binding assay (FIG. 4)
T2 sequence: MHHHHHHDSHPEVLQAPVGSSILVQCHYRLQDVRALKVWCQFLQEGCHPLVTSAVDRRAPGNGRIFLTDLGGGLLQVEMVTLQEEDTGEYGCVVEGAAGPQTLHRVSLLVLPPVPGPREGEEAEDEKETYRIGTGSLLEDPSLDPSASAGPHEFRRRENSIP

B1: Anti-TREML1 Antibody Clone 26A6 (antibody, V domains shown)
VH: EVKLVESGGGLVQPGGSRKLSCAASGFTFSDYGMAWVRQAPGKGPEWIAFISNLAYRIYYADTVTGRFTISRENAKNTLYLEMSSLRSEDSAIYYCVREDYGNNGAMDYWGQGTSVTVSS
VL: DVLMTQTPLSLPVSLGDQASISCRSSQSIVHSNGNTYLEWYLQKPGQSPKLLIYKVSNRFSGVPDRFSGSGSGTDFTLKISRVEAEDLGVYYCFQGSHVPPTFGGGTKLEIK
With B1 the binding (human TREML1 ECD (human)) was “binds” and the binding (mouse TREML1 ECD (mouse)) was “binds”.

B2: Anti-TREML1 Antibody Clone 18D8 (antibody, V domains shown)
VH: EVQVQQSGPELVNPGASVRLSCKASGYIFTDYVIHWVRQKPGQGLEWIGYMNPYTDGPKYSDKIKDKAILTSDRSSNTVYMELRSLTSEDSAVYFCARDFNYYVGAMDFWGQGTSVTVSS
VL: DVVLTQTPLSLPVSLGDQASVSCRSSQSLLHSNGNTYLHWYLQKPGQSPKLLIYKVSNRFSGVPDRFTGSGSGTDFTLKISRVEAEDLGVYFCSQSTHIWTFGGGTKLEIK
For B2, the binding (human TREML1 ECD (human)) was “binds” and the binding (mouse TREML1 ECD (mouse)) was “binds”.

B3: Anti-TREML1 Antibody Clone 23F10 (antibody, V domains shown)
VH: EVQLQQSGPELVRPGASVKVSCKASGYIFTDYVIHWVKQKPGQGLEWFGYINPYTGGPKYSETARGKATLTSDSSSNTAYMVLTSLTSDDSAVYYCTRDFNYYVGAMDFWGQGTSVTVSS
VL: AAVLTQTPLSLPVSLGDQASISCRSTQSLVHSNGNTYVHWYLQKAGQSPKLLIYKVSNRFSGVPDRFSGSGSGTDFTLKISRVEAEDLGVYFCSQSTYVWTFGGGTKLEIE
B3 was tested, and the binding (human TREML1 ECD (human)) was “binds” and the binding (mouse TREML1 ECD (mouse)) was “binds”.

B4: Anti-TREML1 Antibody Clone 27D3 (antibody, V domains shown)
VH: DVQLQQSGPELVKPGASVKMSCKASGYTFTEYVIHWVKQRPGQGLEWFGYFNPYTGGSKFNEKFKDKATLTSDRSSNTVYMELYSLTSEDSAVYYCARDFNYYVGAMDYWGQGTSVTVSS
VL: B2 VL with V3A, V21I, L30V, P45S, T68S, G73V, D75E, T97S, K107R
B4 was tested, and the binding (human TREML1 ECD (human)) was “binds” and the binding (mouse TREML1 ECD (mouse)) was “binds”.

B5: Anti-TREML1 Antibody Clone 28A9 (antibody, V domains shown)
VH: EVQLQQSGPELVKPGASVKMSCKASGYTFTNYVMHWVKQKPGQGLEWIGYFNPYNGHAKYSEKFTGKATLTSDRSSSTAYMELNSLTSEDSAVYYCTRDFNYYVGAMDYWGQGTSVTVSS
VL: DVVMTQSPLSLPVNLGDHASISCRSSQSLIHSNGNTYLHWYLQKPGQSPKLLVYQVSKRFSGVPDRFSGSGSGTDFTLKISRVEAEDLGVYFCSQSTHIWTFGGGTTLEIK
B5 was tested, and the binding (human TREML1 ECD (human)) was “binds” and the binding (mouse TREML1 ECD (mouse)) was “binds”.

B6: Anti-TREML1 Antibody Clone 29F4 (antibody, V domains shown)
VH: B3 VH with R65K, D89E
VL: B3 VL with A1G, R24K, S68I
With B6 the binding (human TREML1 ECD (human)) was “binds” and the binding (mouse TREML1 ECD (mouse)) was “binds”.
